Here are results for one substance from PMC10707163.

Experiment [1] addresses T1, Caveolin-1 (UniProt P33724).
T1 sequence: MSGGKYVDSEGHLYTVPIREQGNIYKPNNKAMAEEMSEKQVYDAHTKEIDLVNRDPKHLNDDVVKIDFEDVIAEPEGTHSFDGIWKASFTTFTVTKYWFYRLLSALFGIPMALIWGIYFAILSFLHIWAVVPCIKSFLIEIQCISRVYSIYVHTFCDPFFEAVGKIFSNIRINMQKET
Kind of experiment: co-IP; CAV1 immunoprecipitated with rabbit polyclonal anti-CAV1 on protein A/G-sepharose from extracts of A375 (CAV1/E-cad) cells, PBS-0.1% Tween, 12 h at 4 °C; E-cad detected by immunoblot; cells treated or not with PGE2 (50 uM). In general terms: Immunoblotting shows a protein as a band on a membrane.

Experiment [2] addresses T1, Caveolin-1. Put plainly: co-IP; CAV1 immunoprecipitated with rabbit polyclonal anti-CAV1 on protein A/G-sepharose from extracts of B16F10 (CAV1/E-cad) cells, PBS-0.1% Tween, 12 h at 4 °C; E-cad detected by immunoblot; cells serum deprived 5 h and treated or not with PGE2 (20 uM, 2 h).

Results are given in words; binding and its absence hold for the method and conditions named. Binding seen in cells or lysates may run through a third protein. Binding calls can cover weak binding; strength is not graded here.

In the case of E-cadherin (murine), the binding entry in experiment [1] and in experiment [2] was “binds” each time.
